Here are results for one substance from article PMC2868802.

Sequences of proteins named here, by UniProt entry; tags and fusion partners are left off. A change or cut given only in a name is not applied to a line headed by its entry. Residues count along the entry.
UniProt Q9NBK5: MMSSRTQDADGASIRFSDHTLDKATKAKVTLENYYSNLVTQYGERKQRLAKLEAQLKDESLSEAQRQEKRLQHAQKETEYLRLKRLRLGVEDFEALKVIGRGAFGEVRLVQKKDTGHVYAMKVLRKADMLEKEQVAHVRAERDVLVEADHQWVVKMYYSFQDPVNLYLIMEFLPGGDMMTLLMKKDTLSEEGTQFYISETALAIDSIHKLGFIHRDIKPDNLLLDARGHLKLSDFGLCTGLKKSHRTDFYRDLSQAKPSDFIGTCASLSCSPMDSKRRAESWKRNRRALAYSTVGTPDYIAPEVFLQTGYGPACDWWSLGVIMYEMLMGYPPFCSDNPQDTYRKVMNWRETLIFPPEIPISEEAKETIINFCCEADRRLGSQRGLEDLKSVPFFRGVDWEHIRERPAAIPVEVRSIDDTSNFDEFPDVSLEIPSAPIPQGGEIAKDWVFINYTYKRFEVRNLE
UniProt Q9VT28, residues 1-1637: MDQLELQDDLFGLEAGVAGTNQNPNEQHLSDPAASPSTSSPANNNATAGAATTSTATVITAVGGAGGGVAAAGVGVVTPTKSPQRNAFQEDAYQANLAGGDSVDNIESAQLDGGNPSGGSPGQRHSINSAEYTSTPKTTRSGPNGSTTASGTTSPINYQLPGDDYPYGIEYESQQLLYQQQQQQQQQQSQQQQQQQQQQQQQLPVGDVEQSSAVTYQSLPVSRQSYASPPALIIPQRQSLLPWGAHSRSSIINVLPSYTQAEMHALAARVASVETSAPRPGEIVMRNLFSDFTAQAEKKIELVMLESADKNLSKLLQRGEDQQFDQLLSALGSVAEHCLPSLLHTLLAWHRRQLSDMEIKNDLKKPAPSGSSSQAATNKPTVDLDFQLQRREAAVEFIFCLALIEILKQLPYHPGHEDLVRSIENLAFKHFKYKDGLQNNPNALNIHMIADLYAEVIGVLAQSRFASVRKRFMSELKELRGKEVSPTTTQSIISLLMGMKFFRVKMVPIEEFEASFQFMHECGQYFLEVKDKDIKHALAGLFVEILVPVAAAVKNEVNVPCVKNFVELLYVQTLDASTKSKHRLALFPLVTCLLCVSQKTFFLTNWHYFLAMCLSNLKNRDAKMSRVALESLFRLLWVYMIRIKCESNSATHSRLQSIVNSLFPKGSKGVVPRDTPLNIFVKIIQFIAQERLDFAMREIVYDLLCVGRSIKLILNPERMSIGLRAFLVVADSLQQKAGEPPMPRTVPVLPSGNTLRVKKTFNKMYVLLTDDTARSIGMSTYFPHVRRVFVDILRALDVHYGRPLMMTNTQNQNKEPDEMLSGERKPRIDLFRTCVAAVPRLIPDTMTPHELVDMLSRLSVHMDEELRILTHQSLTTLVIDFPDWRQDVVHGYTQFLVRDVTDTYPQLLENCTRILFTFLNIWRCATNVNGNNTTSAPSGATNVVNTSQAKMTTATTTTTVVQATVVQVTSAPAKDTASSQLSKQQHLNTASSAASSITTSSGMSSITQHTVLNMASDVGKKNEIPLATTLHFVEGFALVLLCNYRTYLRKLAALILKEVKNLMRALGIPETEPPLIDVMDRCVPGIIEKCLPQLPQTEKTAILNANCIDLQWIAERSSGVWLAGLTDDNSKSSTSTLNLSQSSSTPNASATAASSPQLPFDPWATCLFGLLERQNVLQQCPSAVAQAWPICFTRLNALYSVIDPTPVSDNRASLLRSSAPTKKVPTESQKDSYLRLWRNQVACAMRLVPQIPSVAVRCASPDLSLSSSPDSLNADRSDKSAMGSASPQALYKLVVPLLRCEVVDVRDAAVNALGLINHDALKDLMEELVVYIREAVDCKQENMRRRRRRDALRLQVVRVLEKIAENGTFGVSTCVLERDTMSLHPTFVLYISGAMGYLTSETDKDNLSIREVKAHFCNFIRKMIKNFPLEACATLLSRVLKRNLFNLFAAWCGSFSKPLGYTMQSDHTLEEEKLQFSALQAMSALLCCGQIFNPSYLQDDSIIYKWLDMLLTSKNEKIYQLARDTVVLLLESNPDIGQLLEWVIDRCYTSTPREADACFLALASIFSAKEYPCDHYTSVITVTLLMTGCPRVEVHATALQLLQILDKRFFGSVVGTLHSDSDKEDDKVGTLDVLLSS

This assay addresses trcD^2-1 (amino acid #1-350) (Drosophila) (UniProt Q9NBK5). As to the kind of experiment: two-hybrid; Matchmaker GAL4 two hybrid system 3 (Clontech); N-Fry in pGADT7, Trc proteins in pGBKT7; scored as interacting by complementation for growth and induction of beta-galactosidase.

These are yes or no findings as the source states them, for the method shown. Binding calls can cover weak binding; strength is not graded here.

For “amino terminal fragment of Fry (amino terminal 1637 amino acids) in pGADT7 (from UniProt Q9VT28 1-1637) (domain or fragment)”, the binding result is given as “binds”.
